PubChem BioAssay AID1259314 | Drosophila RNAi Screening Center – 2017

Purpose: 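Transmembrane protein genes affecting ATP after manganese overload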 (primary screen)
Cells: Drosophila S2R+ cells
Knock-down reagent: long dsRNA against Drosophila genes
Timing: 5 days (4 days knock-down, then 1 day metal exposure)
Treatment: manganese chloride added to 15 mM for 24 hours
Measurement: 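Cellular ATP measured by luciferase light, scaled to the plate mean, averaged across replicates and z-scored over plates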
Reading the numbers: mean ATP z-score: higher = more ATP than the plate average, more viable cells under manganese
Rule for the call: 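Called active when the mean ATP z-score is above 1.5 or below -1.5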
Calls: active = strong ATP change, up or down; inactive = no strong ATP change
Shown is an unselected part of about 3,100 deposited reagents. 289 of all reagents (9.3%) were called active. 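Active includes both higher and lower ATP than plate average; check the z-score sign for direction.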 Entries without a mark were called inactive. Reagents against one gene are numbered here. Names joined by + are all predicted targets of the reagent. Reagent sequences are not shown. Not stated in the record: the amount of reagent.

Gene | reagent | mean ATP z-score
fz4 | 1 | -0.545
CG32305 | 1 | 0.474
CG32305 | 2 | -0.0506
dy | 1 | 0.267
dy | 2 | -0.983
CG4301 | 1 | -0.0181
CG4301 | 2 | 0.108
EloA | 1 | 0.447
EloA | 2 | -1.01
Ent1 | 1 | 1.32
rdog | 1 | -0.256
rdog | 2 | -0.757
eloF | 1 | 0.0953
eloF | 2 | 0.738
CG31999 | 1 | -0.0263
CG31999 | 2 | -0.191
CG33203 | 1 | -0.436
CG33203 | 2 | -0.772
CG11353 | 1 | -0.173
CG11353 | 2 | 0.924
CG11438 | 1 | -1.34
CG11438 | 2 | -0.424
Osi23 | 1 | -0.043
Tsp42Ed | 1 | 1.53 (active)
Tsp42Ed | 2 | -0.511
Egfr | 1 | -0.128
Egfr | 2 | -0.445
Egfr | 3 | 0.0501
Egfr | 4 | -0.41
CG4907 | 1 | 0.167
CG4907 | 2 | -0.364
Or19a + Or19b | 1 | 2.67 (active)
Or19a + Or19b | 2 | 1.32
CG17930 | 1 | -1.37
CG17930 | 2 | -0.39
hoe1 | 1 | -0.0486
hoe1 | 2 | 0.0262
nompC | 1 | -1.04
nompC | 2 | -0.292
sll | 1 | 2.22 (active)
sll | 2 | -0.0948
uzip | 1 | -0.702
uzip | 2 | -0.716
Targ | 1 | -1.06
CG14440 | 1 | 0.0422
CG14440 | 2 | 1.13
mAChR-C | 1 | 0.0118
mAChR-C | 2 | 0.626
CG10353 | 1 | -0.338
CG10353 | 2 | 0.0724
CG42269 | 1 | -0.772
CG42269 | 2 | 0.751
Start1 | 1 | -0.788
Start1 | 2 | 0.126
hrm | 1 | -1.04
TM9SF3 | 1 | -1.18
Ir67b | 1 | -1.43

Called active, of those listed so far:
Gene | reagent | mean ATP z-score
Tsp42Ed | 1 | 1.53 (active)
Or19a + Or19b | 1 | 2.67 (active)
sll | 1 | 2.22 (active)

Continued.
Gene | reagent | mean ATP z-score
PGRP-SC1a | 1 | -0.0731
CG6125 | 1 | -0.269
Tsp2A | 1 | -0.485
Tsp2A | 2 | -0.358
Syx5 | 1 | 1.57 (active)
CG42329 | 1 | -0.922
rt | 1 | -1.13
rt | 2 | -0.231
CG5823 | 1 | -0.636
CG5823 | 2 | 0.555
Mrp5 | 1 | -0.814
Mrp5 | 2 | 1.31
Mrp5 | 3 | -1.3
PGRP-LF + UGP | 1 | -0.961
CG13877 + pyx | 1 | 1.62 (active)
rk | 1 | -0.234
Nct | 1 | 0.0774
Nct | 2 | -0.326
CG7882 | 1 | -0.125
wtrw | 1 | 0.249
wtrw | 2 | 0.0986
Arts + Apl | 1 | 1.68 (active)
Osi13 | 1 | -0.868
spict | 1 | -1.1
spict | 2 | -0.98
mth | 1 | -0.31
mth | 2 | -0.0679
hbs | 1 | -0.249
hbs | 2 | -0.945
CG32983 | 1 | -1.39
CG9747 | 1 | -1.05
CG9747 | 2 | 0.705
mthl2 | 1 | -0.994
mthl2 | 2 | 0.141
CG33282 | 1 | 0.149
CG33282 | 2 | 2.79 (active)
eca | 1 | 1.39
tomboy20 | 1 | -0.636
CapaR | 1 | 0.0493
CapaR | 2 | -0.0719
CG11898 | 1 | 1.06
CG11898 | 2 | -0.382
Gr10a | 1 | -0.676
Gr10a | 2 | 0.607
COX6AL2 | 1 | -1.23
COX6AL2 | 2 | 0.0718
Myd88 | 1 | -0.808
Myd88 | 2 | 0.263
PMP34 | 1 | -0.43
PMP34 | 2 | 0.741
Syx16 | 1 | 0.482
Syx16 | 2 | -0.0332
Tsp42Ek | 1 | 0.698
Tsp42Ek | 2 | 0.918
CG9702 | 1 | 2.57 (active)
Nup358 | 1 | -1.94 (active)
CG1607 | 1 | 0.579
CG1607 | 2 | 0.0336
CG31729 | 1 | -0.719
CG31729 | 2 | -0.053
CG31729 | 3 | -0.195
CG6974 | 1 | 0.12
frj | 1 | 0.276
frj | 2 | -0.349
Ekar | 1 | 0.715
Ekar | 2 | 0.322
GlyT | 1 | -0.848
GlyT | 2 | 0.0116
gogo | 1 | -0.321
gogo | 2 | -0.0489
Grik | 1 | -0.666
Grik | 2 | 0.781
Grik | 3 | 1.42
MFS12 | 1 | -0.878
Toll-7 | 1 | 0.273
Toll-7 | 2 | 0.403
Tim17b1 | 1 | -1.24
Tim17b1 | 2 | -0.598
Or63a | 1 | -0.342
Yif1 | 1 | 0.00975
Cln7 | 1 | -0.0802
ine | 1 | -0.374
ine | 2 | -0.266
